Results as given in PubChem BioAssay AID588398 (Broad Institute, 2011).
Out of some 1,200 compounds screened, about 110 (9.2%) were called active. This list was built around the results that the source calls inconclusive (neither active nor inactive); the mix of calls is not that of the screen.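 How the source made its calls: active means pathway reporter half-maximal dose under half the control reporter's, or control reporter unaffected while pathway reporter is inhibited; inconclusive means either signal flat at 30 to 70% inhibition or poorly fitted; inactive means the rest.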

Assay: TES1-eGFP NF-kB reporter inhibition versus Tet-On dsRED, dose response, selectivity assay for LMP1 NF-kB inhibitor project, imaging, HEK293T, dual-color eGFP/dsRED, cherry-picks (AID 588398);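 further: 0% = median of neutral control wells and -100% = median of MG132 positive control wells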
Details: HEK293T Tet-On dsRED counter-screen channel, 48 h; at 19.5 µM (top of the series)

Structure (SMILES) | activity change, negative = inhibition
CCCc1nc2ccc(Br)cc2c(=O)n1-c1ccc([N+](=O)[O-])c(C(F)(F)F)c1 | inconclusive: 9%
COc1ccc(O)c2c(=O)c3c(OC)cc4c(c3oc12)C1C=COC1O4 (configuration not stated) | inconclusive: 123%
